Results deposited as PubChem BioAssay AID1259308 (NCATS, 2017)

- Screen: 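Candidate targets for better recombinant protein yield in mammalian cells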 (primary screen)
- System: human HEK293 embryonic kidney cells stably expressing firefly luciferase (HEK-CMV-Luc2-Hygro)
- Reagent: single siRNA against human genes, 0.8 pmol siRNA per well
- Timing: 72 h
- Detection: 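Reporter luminescence and viable-cell signal on separate replicate plates, given as percent of non-targeting control and median/MAD z-scores, plus per-cell luciferase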
- Direction: total luciferase, z-score and total luciferase, % of control: higher = more reporter protein produced; luciferase per cell, z-score: higher = more reporter output per viable cell; viable cells, % of control: higher = more viable cells
- Active means: 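Active when the median/MAD z-score for overall luciferase is greater than 3; a gene was taken forward for validation with new siRNAs if at least two of its three siRNAs passed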
- Calls: active = raised luciferase; inactive = no rise
Shown is one part, drawn at random, of about 59,000 reagents. In the full data, about 1,510 (2.6%) were called active. 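Calls use total luciferase alone and ignore viability, so some active siRNAs may act by altering cell number.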 Reagents against one gene are numbered here.

Gene,siRNA no.,"total luciferase, z-score","total luciferase, % of control","luciferase per cell, z-score","viable cells, % of control",activity call
NETO1 (GeneID 81832),1,-1.35,55.1,-0.781,75.6,inactive
NETO1 (GeneID 81832),2,1.2,106,0.623,100,inactive
NETO1 (GeneID 81832),3,0.951,101,0.445,100,inactive
GBA2 (GeneID 57704),1,0.884,99.5,0.475,98.1,inactive
GBA2 (GeneID 57704),2,-1.53,51.4,-1.91,95,inactive
GBA2 (GeneID 57704),3,0.0871,83.6,-0.618,110,inactive
MMP20 (GeneID 9313),1,0.331,88.5,0.44,88,inactive
MMP20 (GeneID 9313),2,-0.682,68.3,-1.1,102,inactive
MMP20 (GeneID 9313),3,0.0281,82.4,-0.748,112,inactive
MLC1 (GeneID 23209),1,-0.644,69.1,-1.04,101,inactive
MLC1 (GeneID 23209),2,-0.406,73.8,-0.858,103,inactive
MLC1 (GeneID 23209),3,1.27,107,1.65,77.5,inactive
TM7SF3 (GeneID 51768),1,-0.604,69.9,-0.0272,78.6,inactive
TM7SF3 (GeneID 51768),2,-0.717,67.6,-1.57,114,inactive
TM7SF3 (GeneID 51768),3,0.689,95.6,0.346,97.5,inactive
PCDH19 (GeneID 57526),1,1.04,103,0.794,93.1,inactive
PCDH19 (GeneID 57526),2,-1.62,49.7,-1.49,82.3,inactive
PCDH19 (GeneID 57526),3,-0.814,65.7,0.162,70.3,inactive
UVRAG (GeneID 7405),1,1.4,110,1.14,90.7,inactive
UVRAG (GeneID 7405),2,2.14,124,2.61,69.8,inactive
UVRAG (GeneID 7405),3,-1.41,53.9,-1.21,82.8,inactive
MRPS34 (GeneID 65993),1,-1.93,43.5,-1.09,64.8,inactive
MRPS34 (GeneID 65993),2,0.54,92.6,0.335,94.8,inactive
MRPS34 (GeneID 65993),3,0.509,92,1.13,76.4,inactive

Next part (3 carried over from the part before).
Gene,siRNA no.,"total luciferase, z-score","total luciferase, % of control","luciferase per cell, z-score","viable cells, % of control",activity call
MRPS34 (GeneID 65993),1,-1.93,43.5,-1.09,64.8,inactive
MRPS34 (GeneID 65993),2,0.54,92.6,0.335,94.8,inactive
MRPS34 (GeneID 65993),3,0.509,92,1.13,76.4,inactive
PRKCI (GeneID 5584),1,0.85,98.8,1.7,70.5,inactive
PRKCI (GeneID 5584),2,0.206,86,0.0453,94.9,inactive
PRKCI (GeneID 5584),3,1.44,111,0.583,106,inactive
FBXO43 (GeneID 286151),1,2.32,128,1.82,88.7,inactive
FBXO43 (GeneID 286151),2,0.0455,82.8,0.153,88.9,inactive
FBXO43 (GeneID 286151),3,0.303,87.9,0.234,92.4,inactive
MRPS9 (GeneID 64965),1,1.03,102,1.04,87,inactive
MRPS9 (GeneID 64965),2,0.353,88.9,-0.552,115,inactive
MRPS9 (GeneID 64965),3,-0.157,78.8,0.136,84.9,inactive
EIF4A2 (GeneID 1974),1,0.0656,83.2,0.48,81.9,inactive
EIF4A2 (GeneID 1974),2,-0.382,74.3,-0.373,91.6,inactive
EIF4A2 (GeneID 1974),3,-0.715,67.7,-0.569,87.8,inactive
KRTAP7-1 (GeneID 337878),1,1.08,103,1.08,87.1,inactive
KRTAP7-1 (GeneID 337878),2,-0.427,73.4,-0.613,96.4,inactive
KRTAP7-1 (GeneID 337878),3,0.259,87,-0.401,108,inactive
